These are yes or no findings as the source states them, for the method shown. In cells and extracts the contact can be indirect. Some entries that bind do so weakly or less than the wild type.

The chains behind the UniProt entries cited, without tags or fusion partners.
UniProt P35222: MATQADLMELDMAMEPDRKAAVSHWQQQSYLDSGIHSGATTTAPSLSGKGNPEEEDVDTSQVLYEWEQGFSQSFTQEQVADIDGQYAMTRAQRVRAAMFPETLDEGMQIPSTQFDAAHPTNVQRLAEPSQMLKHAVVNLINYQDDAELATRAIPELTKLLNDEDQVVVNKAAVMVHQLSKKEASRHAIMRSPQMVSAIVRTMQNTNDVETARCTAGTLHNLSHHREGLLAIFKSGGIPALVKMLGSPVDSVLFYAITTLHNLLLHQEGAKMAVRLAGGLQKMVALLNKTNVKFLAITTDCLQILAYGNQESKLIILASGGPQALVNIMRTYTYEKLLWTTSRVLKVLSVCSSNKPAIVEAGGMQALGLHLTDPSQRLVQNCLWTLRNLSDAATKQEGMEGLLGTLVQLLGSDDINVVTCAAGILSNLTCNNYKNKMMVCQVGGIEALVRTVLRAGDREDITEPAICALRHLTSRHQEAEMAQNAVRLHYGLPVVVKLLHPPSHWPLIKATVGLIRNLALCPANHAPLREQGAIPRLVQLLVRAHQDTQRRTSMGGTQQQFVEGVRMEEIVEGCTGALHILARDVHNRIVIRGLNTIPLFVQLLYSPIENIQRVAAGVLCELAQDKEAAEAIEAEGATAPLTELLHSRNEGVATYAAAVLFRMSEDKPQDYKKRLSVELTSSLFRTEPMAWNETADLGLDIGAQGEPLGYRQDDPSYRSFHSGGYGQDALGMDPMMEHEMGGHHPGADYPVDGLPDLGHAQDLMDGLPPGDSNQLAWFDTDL
UniProt Q96GG9: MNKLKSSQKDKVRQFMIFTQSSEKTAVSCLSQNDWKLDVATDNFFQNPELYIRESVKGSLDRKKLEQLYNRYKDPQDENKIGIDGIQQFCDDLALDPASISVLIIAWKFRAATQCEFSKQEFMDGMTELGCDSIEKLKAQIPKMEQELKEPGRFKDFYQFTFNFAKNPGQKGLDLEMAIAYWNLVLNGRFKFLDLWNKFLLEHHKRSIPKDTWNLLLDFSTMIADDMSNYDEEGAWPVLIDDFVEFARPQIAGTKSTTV
UniProt Q9UJU2: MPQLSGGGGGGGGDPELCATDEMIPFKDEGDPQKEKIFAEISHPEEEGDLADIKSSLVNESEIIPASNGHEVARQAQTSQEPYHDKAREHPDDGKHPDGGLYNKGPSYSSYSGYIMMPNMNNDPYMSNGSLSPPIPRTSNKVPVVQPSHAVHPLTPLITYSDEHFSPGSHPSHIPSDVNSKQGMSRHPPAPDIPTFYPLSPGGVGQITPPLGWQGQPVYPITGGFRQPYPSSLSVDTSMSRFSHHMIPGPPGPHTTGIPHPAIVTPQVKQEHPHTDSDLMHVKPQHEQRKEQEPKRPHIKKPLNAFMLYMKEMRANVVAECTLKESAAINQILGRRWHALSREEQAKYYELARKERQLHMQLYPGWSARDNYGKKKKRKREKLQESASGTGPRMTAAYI
UniProt Q13620: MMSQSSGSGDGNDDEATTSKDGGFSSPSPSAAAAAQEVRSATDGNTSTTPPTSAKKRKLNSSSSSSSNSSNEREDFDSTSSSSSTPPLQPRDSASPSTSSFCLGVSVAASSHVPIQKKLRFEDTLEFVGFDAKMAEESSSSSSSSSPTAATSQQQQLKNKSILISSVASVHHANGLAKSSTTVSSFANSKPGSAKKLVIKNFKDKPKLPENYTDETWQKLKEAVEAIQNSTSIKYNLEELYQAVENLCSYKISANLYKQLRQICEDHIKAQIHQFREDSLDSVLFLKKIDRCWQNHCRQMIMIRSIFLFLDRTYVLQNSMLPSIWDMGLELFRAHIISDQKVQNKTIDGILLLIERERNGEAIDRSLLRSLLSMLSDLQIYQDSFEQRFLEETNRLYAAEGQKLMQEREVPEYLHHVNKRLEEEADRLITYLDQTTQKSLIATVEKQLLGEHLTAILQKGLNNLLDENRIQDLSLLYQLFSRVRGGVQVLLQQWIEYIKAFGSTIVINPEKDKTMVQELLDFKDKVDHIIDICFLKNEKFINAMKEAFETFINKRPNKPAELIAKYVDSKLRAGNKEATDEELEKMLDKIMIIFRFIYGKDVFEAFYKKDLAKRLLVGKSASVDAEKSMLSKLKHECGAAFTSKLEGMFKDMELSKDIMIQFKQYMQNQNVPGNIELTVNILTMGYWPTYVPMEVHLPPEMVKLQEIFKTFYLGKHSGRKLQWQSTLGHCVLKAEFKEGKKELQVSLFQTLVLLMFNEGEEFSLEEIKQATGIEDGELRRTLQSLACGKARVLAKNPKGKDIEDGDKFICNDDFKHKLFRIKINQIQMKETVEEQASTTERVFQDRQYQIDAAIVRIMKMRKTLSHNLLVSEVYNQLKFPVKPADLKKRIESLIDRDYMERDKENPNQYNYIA

Assay [1] concerns the target β-catenin (human (endogenous in DU145)) (UniProt P35222). The assay is described as follows: co-IP; IP with anti-β-catenin antibody, detection with anti-Lef1 antibodies; DU145 cells and DU145 DCUN1D1-KD cells transfected with pCDNA Flag-DCUN1D1 (DCUN1D1 expression restored).
Assay [2] has the same target. The assay is described as follows: condition: only in DU145 DCUN1D1 KD cells (shRNA knock-down of DCUN1D1); co-IP; IP with anti-β-catenin antibody, detection with anti-Lef1 antibodies; DU145 DCUN1D1-KD cells (shRNA against DCUN1D1).
The target in assay [3] is DCUN1D1 (endogenous, DU145) (human (endogenous in DU145)) (UniProt Q96GG9). The assay is described as follows: co-IP; DU145 cell extract; IP with specific DCUN1D1 antibodies, unspecific IgG as control; immunoblot against CUL1, CUL3 and CUL4B. Background: A western blot detects proteins with antibodies after separation by electrophoresis.

For Lef1 (from UniProt Q9UJU2 1-399), the binding result is given as “binds” in assay [1] and “no binding” in assay [2].
For the substance “cullin 4B (CUL4B) (from UniProt Q13620 1-913)”, the binding entry in assay [3] is “binds”.

These data come from paper PMC10417424.
